Experiment [1] concerns the target soluble human LRP6 ectodomain fragment E1-E2 (residues 1 to 629) (human) (UniProt O75581). The experiment is described as follows: pull-down; C-terminally His-tagged LRP6 ectodomain fragments immobilised onto Ni-NTA beads, incubated with culture supernatant of Expi293F cells stably expressing mouse USAG-1; eluted by SDS, nonreducing SDS-PAGE; only the target purified.

Chains of the proteins cited; added tags and fusions are not shown. Residues count along the entry.
UniProt Q9CQN4, residues 24-206: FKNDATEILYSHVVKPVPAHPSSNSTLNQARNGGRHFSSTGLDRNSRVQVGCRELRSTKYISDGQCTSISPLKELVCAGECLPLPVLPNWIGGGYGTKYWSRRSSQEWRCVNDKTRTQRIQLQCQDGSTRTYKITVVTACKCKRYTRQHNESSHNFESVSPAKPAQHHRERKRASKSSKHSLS

The target in experiment [2] is soluble human LRP6 ectodomain fragment E1-E4 (residues 1 to 1244) (human) (UniProt O75581). The description is as above.
Experiment [3] concerns the target T1, soluble human LRP6 ectodomain fragment E3-E4 (residues 630 to 1244) (human) (UniProt O75581).
T1 sequence: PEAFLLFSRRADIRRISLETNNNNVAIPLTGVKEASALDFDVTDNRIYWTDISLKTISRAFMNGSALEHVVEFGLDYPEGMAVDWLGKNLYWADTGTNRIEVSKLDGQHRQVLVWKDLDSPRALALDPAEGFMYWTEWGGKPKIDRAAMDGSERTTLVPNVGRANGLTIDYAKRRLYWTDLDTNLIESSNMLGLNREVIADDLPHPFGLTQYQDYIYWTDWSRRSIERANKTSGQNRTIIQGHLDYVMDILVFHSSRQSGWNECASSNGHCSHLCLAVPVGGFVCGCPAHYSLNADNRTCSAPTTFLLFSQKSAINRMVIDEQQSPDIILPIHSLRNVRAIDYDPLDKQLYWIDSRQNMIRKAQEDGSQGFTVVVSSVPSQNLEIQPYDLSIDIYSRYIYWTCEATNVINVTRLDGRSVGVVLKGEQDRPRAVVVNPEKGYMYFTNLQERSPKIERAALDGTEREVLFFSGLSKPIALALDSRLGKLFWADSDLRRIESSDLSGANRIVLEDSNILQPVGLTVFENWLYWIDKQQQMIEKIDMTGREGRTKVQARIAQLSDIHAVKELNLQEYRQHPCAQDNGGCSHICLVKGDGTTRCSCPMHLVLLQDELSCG
The description is as above.

In experiment [4] the target is mouse USAG-1 (uterine sensitization-associated gene-1) recombinant protein (mouse) (UniProt Q9CQN4). The experiment is described as follows: pull-down; Protein A beads with each anti-USAG-1 antibody (step 1), then USAG-1 (step 2), then LRP6 E1-E2 fragment (step 3) to form a ternary complex; nonreducing SDS-PAGE.

No constants are given. Whether binding was seen depends on the method and setting. Binding seen in cells or lysates may run through a third protein. Some entries that bind do so weakly or less than the wild type.

On to “mouse USAG-1 (uterine sensitization-associated gene-1) recombinant protein (from UniProt Q9CQN4 24-206)”, for which the results for the binding result in experiment [1], in experiment [2] and in experiment [3] were “binds”, “no binding” and “no binding”, respectively.

As for “soluble human LRP6 ectodomain fragment E1-E2 (residues 1 to 629) (from UniProt O75581 20-629) (domain or fragment)”, the binding entry in experiment [4] was “binds”.

The values are drawn from PMC7880588.
